# Measurements: PubChem BioAssay AID1347076 (National Center for Advancing Translational Sciences (NCATS), 2019)
# Hit rate of the full screen: of about 400,000 compounds, about 13,000 (3.2%) were called active. This list was built around the results that the source calls inconclusive (neither active nor inactive); the mix of calls is not that of the screen. Calls follow the shape of the dose curve; as a rule, active = well fitted cell-killing curve with a large enough effect; inconclusive = small, poorly fitted or top-dose-only effect, or effect the other way; inactive = flat fitted curve, though single readings scatter. Potencies of inconclusive entries are doubtful fits and often do not repeat.
# Assay: qHTS assay for MDR1-selective chemotherapeutics: Primary screen using the drug-selected MDR subline cells KB-V1; also: nearly all actives have a fitted effect of over 60% in size
# Conditions: KB-V1 MDR cells viability, CellTiter-Glo, 72 h; activity change, negative = cytotoxicity: at 46.1 µM (top of the series)
# Outline: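 KB-V1 MDR subline cells in DMEM (phenol-red free, 10% FBS) exposed to compounds in qHTS concentration series for 72 h at 37 degrees C. Viability read by CellTiter-Glo luminescence; concentration-effect curves fitted after normalization and correction.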
# % is scaled to controls: 0 for no effect and ±100 for the full control effect; potency is read from the fitted curve at half-maximal effect.
Compound,Potency,"activity change, negative = cytotoxicity"
COc1ccc(CNC(=O)c2sc(=O)n(Cc3cc(C(C)=O)ccc3OC)c2C)cc1,"inconclusive: 9.2 µM [cytotoxic, partial curve]",–
COc1cc(OC)c(NC(=O)C(=O)CC(=O)c2ccc(C)cc2C)cc1Cl,"inconclusive: 23.1 µM [cytotoxic, partial curve, poor fit]",–
CC(=O)NC(=O)c1ccc(-c2ccc(Cl)cc2)o1,active: 8.2 µM,–
COc1ccc(C(=O)NCC(C)(c2ccccc2)c2ccccc2)cc1S(=O)(=O)N1CCOCC1,"inconclusive: 16.4 µM [cytotoxic, partial curve, poor fit]",–
O=C(CN1C(=O)NC2(CCCC2)C1=O)NNC(=O)c1ccc(Cl)cc1,"inconclusive: 18.4 µM [rising, single point]",–
COc1cccc(C(=O)NC(c2ccccc2)C2CCCC2)c1 (configuration not stated),inactive,–
CC1(C)Cc2c(sc(NC(=O)c3ccccc3)c2C(=O)O)CO1,"inconclusive: 29.1 µM [cytotoxic, single point]",–
CCOC(=O)C1CCCN(S(=O)(=O)c2ccc(OC)c3ccccc23)C1 (configuration not stated),"inconclusive: 29.1 µM [cytotoxic, single point]",–
Cc1nc(CSc2ccc(Cl)cc2)cc(N2CC(C)OC(C)C2)n1 (configuration not stated),"inconclusive: 29.1 µM [cytotoxic, single point]",–
Cc1cccc(OCc2nnc(SCC(=O)NCc3ccc4c(c3)OCO4)o2)c1,inactive,–
Cc1cccc2sc(NNC(=O)c3ccc(S(=O)(=O)N4CCCC(C)C4)cc3)nc12 (configuration not stated),inactive,–
CCOc1ccc(C(=O)Nc2cccc(C)n2)cc1,"inconclusive: 16.4 µM [cytotoxic, partial curve, poor fit]",–
Cc1ccc(S(=O)(=O)N2CCN(C(C)CC(=O)O)CC2)cc1 (configuration not stated),"inconclusive: 16.4 µM [rising, single point]",–
Cc1ccc(-c2nn(-c3cccc(F)c3)cc2CN(Cc2nccn2C)C(C)C)o1,"inconclusive: 0.411 µM [cytotoxic, full curve]",–
O=C(O)CC1S/C(=N/N=C/C=C/c2ccccc2)NC1=O (configuration not stated),inactive,–
CCN(CC)C(=O)C1CCCN(Cc2ccccc2F)C1 (configuration not stated),"inconclusive: 16.4 µM [cytotoxic, partial curve, poor fit]",–
CC(CC(=O)N1CCN(S(=O)(=O)c2ccccc2)CC1)n1cncn1 (configuration not stated),"inconclusive: 29.1 µM [rising, partial curve, poor fit]",–
O=C(Nc1nc2ccccc2n1CCN1CCOCC1)c1cn(-c2ccccc2)nc1-c1ccccc1,"inconclusive: 1.3 µM [cytotoxic, partial curve, poor fit]",–
Cc1cc(C)cc(N(CC(=O)NCC2CCCO2)C(=O)CN2C(=O)COc3ccccc32)c1 (configuration not stated),active: 13 µM,–
Cc1nc(NCCc2ccccc2)c(C#N)c(C)c1[N+](=O)[O-],"inconclusive: 18.4 µM [cytotoxic, single point]",–
Cc1nn2c(-c3ccccc3)nnc2c2ccccc12,active: 5.8 µM,–
COc1ccc(OC)c(C(=O)COC(=O)c2cccnc2Cl)c1,inactive,–
O=C(C[C@H]1CC[C@@H](NS(=O)(=O)c2ccccc2)[C@@H](CO)O1)NCc1ccc(Cl)c(Cl)c1,inactive,–

# Record cards, from the list above:
# `Cc1ccc(-c2nn(-c3cccc(F)c3)cc2CN(Cc2nccn2C)C(C)C)o1` as listed: Potency: inconclusive: 0.411 µM [cytotoxic, full curve]
# `Cc1ccc(S(=O)(=O)N2CCN(C(C)CC(=O)O)CC2)cc1` (configuration not stated) as listed: Potency: inconclusive: 16.4 µM [rising, single point]
# `Cc1nn2c(-c3ccccc3)nnc2c2ccccc12` as listed: Potency: active: 5.8 µM
# `O=C(O)CC1S/C(=N/N=C/C=C/c2ccccc2)NC1=O` (configuration not stated) as listed: Potency: inactive

# Later entries:

Compound,Potency,"activity change, negative = cytotoxicity"
CCOc1ccccc1NC(=O)CNC(=O)c1nn(-c2ccc(OC)c(OC)c2)c(=O)c2ccccc12,"inconclusive: 2.59 µM [cytotoxic, partial curve, poor fit]",–
COc1ccc(-c2nc(C#N)c(NCc3ccccc3Cl)o2)cc1OC,"inconclusive: 4.11 µM [cytotoxic, full curve]",–
Cc1cc(C)c(NC(=O)CSCc2c(C)noc2C)c(C)c1,active: 23.1 µM,–
CCCCOC(=O)C1=C(C)Nc2ncnn2C1c1ccc(OC)c(OC)c1OC (configuration not stated),"inconclusive: 11.6 µM [cytotoxic, partial curve, poor fit]",–
COc1cccc(C(O)c2nc(-c3ccc(F)cc3OC)cs2)c1 (configuration not stated),–,inconclusive: -35.7% [cytotoxic]
CCOc1cc(/C=N/NC(=O)CN2CCCCC2)ccc1OCc1cccc(Cl)c1,"inconclusive: 11.6 µM [cytotoxic, partial curve]",–
Clc1ccc2nc(N3CCNCC3)nc(-c3ccccc3)c2c1,active: 18.4 µM,–
O=C(c1ccc2c(=O)n(CCc3ccccc3)c(=O)[nH]c2c1)N1CCN(c2ccc(F)cc2)CC1,"inconclusive: 0.82 µM [cytotoxic, full curve]",–
O=C(CSc1oc(-c2cccs2)nc1S(=O)(=O)c1ccccc1)NC1CCCCC1,active: 3.66 µM,–
N#Cc1c(N)nc(N2CCCC2)c(C#N)c1-c1ccc(Cl)cc1,"inconclusive: 2.31 µM [cytotoxic, full curve]",–
Cc1ccc(S(=O)(=O)NCc2ccccc2)cc1C(=O)N1CCN(S(=O)(=O)c2ccccc2F)CC1,inactive,–
COc1cc(-c2nc3c(c(C)nn3-c3ccccc3)c3cc(OC)c(OC)cc23)ccc1O,"inconclusive: 18.4 µM [cytotoxic, partial curve, poor fit]",–
CC(C)(C)Nc1nc2ccc([N+](=O)[O-])cc2o1,"inconclusive: 11.6 µM [rising, partial curve, poor fit]",–
CCCCCC(=O)Nc1cccc(C2=NOC3(C2)C[C@H](C(N)=O)N(C(=O)c2ccccc2)C3)c1 (some centres not stated),"inconclusive: 6.51 µM [rising, partial curve]",–
C(=Cc1c[nH]c2ccccc12)c1nccc2ccccc12,"inconclusive: 29.1 µM [cytotoxic, single point]",–
CCC(=O)N1N=C2CC(C)(C)OCC2C1c1ccccc1 (configuration not stated),inactive,–
CCn1c(=O)[nH]c2cc(Cl)c(Cl)cc21,–,inconclusive: 12.1%
Cc1cccc(N2CCN(C(=O)c3cccc(-n4c(C)nc5cccnc54)c3)CC2)c1C,"inconclusive: 0.0326 µM [cytotoxic, full curve]",–
Cc1ccc(NC(=O)C(C)c2cccc(C(=O)c3ccccc3)c2)cc1 (configuration not stated),"inconclusive: 29.1 µM [cytotoxic, single point]",–
CCOc1ccccc1CNC(=O)C1CCN(c2nn3cc(-c4ccc(F)cc4)nc3s2)CC1,inactive,–
CC(C)=CCC/C(C)=C/C=N/NC(=O)c1ccc([N+](=O)[O-])cc1,"inconclusive: 11.6 µM [cytotoxic, partial curve]",–
Cc1cc(N2CCN(Cc3ccccc3)CC2)n2nc(C)c(-c3ccccc3)c2n1,"inconclusive: 1.64 µM [cytotoxic, full curve, poor fit]",–
COc1ccc(C(=O)CN2C(=O)C(C)(C)Oc3ccc(C(=O)N4CCCCCC4)cc32)cc1,active: 18.4 µM,–

Compound,Potency,"activity change, negative = cytotoxicity"
O=P(OC1CCCCC1)(OC1CCCCC1)C(Nc1ccccc1)c1cccnc1 (configuration not stated),"inconclusive: 10.3 µM [cytotoxic, partial curve, poor fit]",–
O=C(N/N=C/c1cc([N+](=O)[O-])ccc1N1CCCCCC1)c1ccccn1,"inconclusive: 29.1 µM [rising, single point]",–
CC(C)CC(N)c1csc(NC(=O)c2cc(C(C)(C)C)nn2Cc2ccccc2)n1 (configuration not stated),active: 18.4 µM,–
Cc1nnc(SCCn2c(N3CCC(Cc4ccccc4)CC3)nc3c2c(=O)[nH]c(=O)n3C)s1,"inconclusive: 18.4 µM [cytotoxic, partial curve, poor fit]",–
CC1(C)CC(Cc2ccc(C(F)(F)F)cn2)N(C(=O)OC(C)(C)C)C1 (configuration not stated),inactive,–
COC(=O)c1ccc(S(=O)(=O)N(CCO)Cc2ccccc2)n1C,"inconclusive: 0.731 µM [rising, full curve, poor fit]",–
COc1ccccc1NC(=O)c1ccc(NC(=O)CSc2nc(N)cc(=O)[nH]2)cc1,"inconclusive: 29.1 µM [rising, single point]",–
CCOC(=O)Nc1ccc(S(=O)(=O)NC2CCCCC2)cc1,"inconclusive: 20.6 µM [cytotoxic, single point]",–
CCOc1ccccc1N(CC(=O)NCCSc1ccccc1)S(=O)(=O)c1ccccc1,"inconclusive: 1.46 µM [cytotoxic, full curve]",–
NC(=O)Cc1ncc(C(F)(F)F)cc1Cl,inactive,–
O=c1[nH]cc(N2CCCCCC2)c(=O)[nH]1,inactive,–
Fc1ccc(Nc2nc(NCc3ccco3)c3ccccc3n2)cc1,active: 18.4 µM,–
O=C(Nc1ccc(N2CCOCC2)cc1)c1cc2c(s1)CCCCC2,inactive,–
Cc1cc(C)c(N2C(=O)CC(Sc3ccccc3N)C2=O)c(C)c1 (configuration not stated),"inconclusive: 2.91 µM [cytotoxic, full curve]",–
COc1ccc(NC(=O)c2ccc(COCC(F)(F)C(F)F)cc2)cc1,"inconclusive: 11.6 µM [cytotoxic, partial curve, poor fit]",–
Cc1cccc(C(=O)NCCC(=O)Nc2ccc(C)c(F)c2)c1,"inconclusive: 16.4 µM [cytotoxic, partial curve, poor fit]",–
COC(=O)c1sccc1NC(=O)c1cc2c(s1)CCCC2,active: 14.6 µM,–
COc1ccc(C2c3[nH]c4ccccc4c3CCN2C(=O)c2cn3ccccc3n2)c(F)c1 (configuration not stated),"inconclusive: 8.2 µM [cytotoxic, partial curve, poor fit]",–
Cc1nnc(N2CCC(C(=O)NCCc3ccccc3Cl)CC2)c2nn(-c3ccccc3)c(C)c12,"inconclusive: 29.1 µM [cytotoxic, single point]",–
Nc1c(-c2ccc(Cl)cc2)cnn1-c1cccc([N+](=O)[O-])c1,"inconclusive: 7.31 µM [cytotoxic, partial curve]",–
COc1ccc(/C=C/C(=O)NC(=S)NNC(=O)c2ccco2)cc1,"inconclusive: 23.1 µM [cytotoxic, single point]",–
